Reference: the supplement of paper PMC10032668
The list shows a part of the results. Only hits are listed; about a third recur on repeated control peptides.

By UniProt entry, the sequences of proteins in these tests, tags left out.
PIN4, Q9Y237, UniProt Q9Y237, whole entry: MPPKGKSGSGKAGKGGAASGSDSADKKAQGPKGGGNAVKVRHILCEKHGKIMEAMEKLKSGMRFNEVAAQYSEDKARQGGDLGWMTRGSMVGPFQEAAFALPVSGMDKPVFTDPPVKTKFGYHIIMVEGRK
UBE2I, P63279, UniProt P63279, whole entry: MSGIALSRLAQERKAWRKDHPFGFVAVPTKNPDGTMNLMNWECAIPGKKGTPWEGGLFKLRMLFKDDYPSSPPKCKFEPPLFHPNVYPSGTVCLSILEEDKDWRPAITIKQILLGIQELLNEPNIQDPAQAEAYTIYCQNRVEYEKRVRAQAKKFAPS
UFM1, P61960, UniProt P61960, whole entry: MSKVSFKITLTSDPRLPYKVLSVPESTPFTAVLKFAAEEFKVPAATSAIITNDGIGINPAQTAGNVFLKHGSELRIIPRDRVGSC
MSN, P26038, UniProt P26038, whole entry: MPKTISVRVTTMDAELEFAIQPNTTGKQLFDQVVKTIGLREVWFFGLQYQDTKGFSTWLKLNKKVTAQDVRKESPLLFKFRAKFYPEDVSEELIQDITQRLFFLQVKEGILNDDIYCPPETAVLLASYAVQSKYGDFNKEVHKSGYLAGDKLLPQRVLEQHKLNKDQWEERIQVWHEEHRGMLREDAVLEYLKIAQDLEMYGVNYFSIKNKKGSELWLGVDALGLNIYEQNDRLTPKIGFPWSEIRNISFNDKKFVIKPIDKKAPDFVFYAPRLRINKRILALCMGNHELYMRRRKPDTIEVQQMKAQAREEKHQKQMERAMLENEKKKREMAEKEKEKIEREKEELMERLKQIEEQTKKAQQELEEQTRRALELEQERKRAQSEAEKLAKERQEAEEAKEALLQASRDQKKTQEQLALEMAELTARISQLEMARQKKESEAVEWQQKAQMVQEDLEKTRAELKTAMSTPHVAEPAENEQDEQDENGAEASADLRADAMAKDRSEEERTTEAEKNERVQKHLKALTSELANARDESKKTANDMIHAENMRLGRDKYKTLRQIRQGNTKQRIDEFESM

Legend:
Assay in all cases: PRISMA enrichment of interactor (LFQ) in peptide spot vs all other peptide spots (log2 fold change); higher = stronger / more specific binding of the interactor to the peptide
NDUFAF7, Q7L592 = target: NDUFAF7, Q7L592
Description: (§1)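 PRISMA: 15-aa overlapping tiles (offset 8 aa) of 60 microproteins, plus SOS1/GLUT1 control peptides, were spot-synthesized on cellulose membranes in triplicate. Membranes were incubated with benzonase-treated HEK293T lysate, and bound proteins were identified by LC-MS/MS with LFQ. Enrichment is the log2 fold change of each protein in one spot versus all other spots. Only interactors passing the significance cutoff are listed.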

NIFK, Q9BYG3 = target: NIFK, Q9BYG3
Description: as §1

NME4, O00746 = target: NME4, O00746
Description: as §1

NOL7, Q9UMY1 = target: NOL7, Q9UMY1
Description: as §1

[1] = substrate: NONO, Q15233
Description: as §1

NTHL1, P78549 = target: NTHL1, P78549
Description: as §1

NUSAP1, Q9BXS6 = target: NUSAP1, Q9BXS6
Description: as §1

PAK1IP1, Q9NWT1 = target: PAK1IP1, Q9NWT1
Description: as §1

PDF, Q9HBH1 = target: PDF, Q9HBH1
Description: as §1

PHF6, Q8IWS0 = target: PHF6, Q8IWS0
Description: as §1

PIN4, Q9Y237 = target: PIN4, Q9Y237
Description: as §1

PPAN-P2RY11 = target: PPAN-P2RY11
Description: as §1

RBM34, P42696 = target: RBM34, P42696
Description: as §1

RBMX, P38159 = target: RBMX, P38159
Description: as §1

RBMXL1, Q96E39 = target: RBMXL1, Q96E39
Description: as §1

REXO4, Q9GZR2 = target: REXO4, Q9GZR2
Description: as §1

RPS19BP1, Q86WX3 = target: RPS19BP1, Q86WX3
Description: as §1

RRP1, P56182 = target: RRP1, P56182
Description: as §1

SERF2, P84101 = target: SERF2, P84101
Description: as §1

SFPQ, P23246 = target: SFPQ, P23246
Description: as §1

SGPL1, O95470 = target: SGPL1, O95470
Description: as §1

SHMT2, P34897 = target: SHMT2, P34897
Description: as §1

SRP14, P37108 = target: SRP14, P37108
Description: as §1

TFAM, Q00059 = target: TFAM, Q00059
Description: as §1

TMA16, Q96EY4 = target: TMA16, Q96EY4
Description: as §1

UBE2I, P63279 = target: UBE2I, P63279
Description: as §1

UFC1, Q9Y3C8 = target: UFC1, Q9Y3C8
Description: as §1

UFM1, P61960 = target: UFM1, P61960
Description: as §1

VRK1, Q99986 = target: VRK1, Q99986
Description: as §1

ZC3H15, Q8WU90 = target: ZC3H15, Q8WU90
Description: as §1

ZNF22, P17026 = target: ZNF22, P17026
Description: as §1

ZNF768, Q9H5H4 = target: ZNF768, Q9H5H4
Description: as §1

hCG_2014768 = target: hCG_2014768
Description: as §1

ABCF1, Q8NE71 = target: ABCF1, Q8NE71
Description: as §1

BAG4, O95429 = target: BAG4, O95429
Description: as §1

CBX3, Q13185 = target: CBX3, Q13185
Description: as §1

CIAPIN1, Q6FI81 = target: CIAPIN1, Q6FI81
Description: as §1

CYP51A1, Q16850 = target: CYP51A1, Q16850
Description: as §1

GEMIN2, O14893 = target: GEMIN2, O14893
Description: as §1

HTATSF1, O43719 = target: HTATSF1, O43719
Description: as §1

MSN, P26038 = target: MSN, P26038
Description: as §1

SUGP1, Q8IWZ8 = target: SUGP1, Q8IWZ8
Description: as §1

TFB1M, Q8WVM0 = target: TFB1M, Q8WVM0
Description: as §1

Binder: YWLLEGGDSEDKEDA [CRNDE]
- PRISMA enrichment of interactor (log2) (NDUFAF7, Q7L592): 3.44
- PRISMA enrichment of interactor (log2) (NIFK, Q9BYG3): 4.87
- PRISMA enrichment of interactor (log2) (NME4, O00746): 3.76
- PRISMA enrichment of interactor (log2) (NOL7, Q9UMY1): 3.75
- PRISMA enrichment of interactor (log2) [1]: 3.23
- PRISMA enrichment of interactor (log2) (NTHL1, P78549): 3.54
- PRISMA enrichment of interactor (log2) (NUSAP1, Q9BXS6): 3.57
- PRISMA enrichment of interactor (log2) (PAK1IP1, Q9NWT1): 3.69
- PRISMA enrichment of interactor (log2) (PDF, Q9HBH1): 3.49
- PRISMA enrichment of interactor (log2) (PHF6, Q8IWS0): 3.54
- PRISMA enrichment of interactor (log2) (PIN4, Q9Y237): 6.83
- PRISMA enrichment of interactor (log2) (PPAN-P2RY11): 3.82
- PRISMA enrichment of interactor (log2) (RBM34, P42696): 4.33
- PRISMA enrichment of interactor (log2) (RBMX, P38159): 4.6
- PRISMA enrichment of interactor (log2) (RBMXL1, Q96E39): 4.37
- PRISMA enrichment of interactor (log2) (REXO4, Q9GZR2): 4.48
- PRISMA enrichment of interactor (log2) (RPS19BP1, Q86WX3): 4.06
- PRISMA enrichment of interactor (log2) (RRP1, P56182): 4.12
- PRISMA enrichment of interactor (log2) (SERF2, P84101): 5.57
- PRISMA enrichment of interactor (log2) (SFPQ, P23246): 4
- PRISMA enrichment of interactor (log2) (SGPL1, O95470): 3.67
- PRISMA enrichment of interactor (log2) (SHMT2, P34897): 4.61
- PRISMA enrichment of interactor (log2) (SRP14, P37108): 4.53
- PRISMA enrichment of interactor (log2) (TFAM, Q00059): 3.98
- PRISMA enrichment of interactor (log2) (TMA16, Q96EY4): 3.38
- PRISMA enrichment of interactor (log2) (UBE2I, P63279): 4.02
- PRISMA enrichment of interactor (log2) (UFC1, Q9Y3C8): 3.38
- PRISMA enrichment of interactor (log2) (UFM1, P61960): 3.7
- PRISMA enrichment of interactor (log2) (VRK1, Q99986): 4.64
- PRISMA enrichment of interactor (log2) (ZC3H15, Q8WU90): 3.59
- PRISMA enrichment of interactor (log2) (ZNF22, P17026): 3.74
- PRISMA enrichment of interactor (log2) (ZNF768, Q9H5H4): 4.62
- PRISMA enrichment of interactor (log2) (hCG_2014768): 5.09

Binder: PAGLSWKPSSLWNSE [RP11-140K17.3_2]
- PRISMA enrichment of interactor (log2) (ABCF1, Q8NE71): 4.86
- PRISMA enrichment of interactor (log2) (BAG4, O95429): 7.15
- PRISMA enrichment of interactor (log2) (CBX3, Q13185): 4.75
- PRISMA enrichment of interactor (log2) (CIAPIN1, Q6FI81): 4.09
- PRISMA enrichment of interactor (log2) (CYP51A1, Q16850): 4.3
- PRISMA enrichment of interactor (log2) (GEMIN2, O14893): 4.14
- PRISMA enrichment of interactor (log2) (HTATSF1, O43719): 6.78
- PRISMA enrichment of interactor (log2) (MSN, P26038): 4.86
- PRISMA enrichment of interactor (log2) (SUGP1, Q8IWZ8): 4.4
- PRISMA enrichment of interactor (log2) (TFB1M, Q8WVM0): 7.69
- PRISMA enrichment of interactor (log2) (VRK1, Q99986): 5.14
